No constants are given. Whether binding was seen depends on the method and setting. Binding seen in cells or lysates may run through a third protein. Binding can be weak; no strength is given. For part of these data: Where a sequence is shown, tags or fusion partners need not be part of it.
Tests used:
[1] = biological target: microtubules of osteoclasts (polymerized from endogenous tubulin) (mouse (endogenous in RAW264.7-derived osteoclasts)); experiment: co-sedimentation; microtubule co-sedimentation from the high speed supernatant (100,000g) of osteoclast extracts in 1X BRB80, 1 mM DTT, 0.1% IGEPAL CA-630; tubulin polymerized with 2 mM GTP at 37 °C and paclitaxel; centrifuged at 100,000g over a 40% glycerol cushion; supernatant and pellet immunoblotted
[2] = biological target: microtubules of osteoclasts (polymerized from endogenous tubulin) (mouse (endogenous in RAW264.7-derived osteoclasts)); experiment: co-sedimentation; tubulin/microtubule fractionation of Arhgap10 KO #28 osteoclasts expressing doxycycline-induced myc-ARHGAP10 constructs; immunoblot (Fig. S2)
[3] = biological target: microtubules of HEK293T cells (microtubule fraction) (human (endogenous in HEK293T)); experiment: co-sedimentation; fractionation of HEK293T cells overexpressing myc-tagged constructs (24 h after transfection) into tubulin and microtubule fractions; immunoblot

| Binder | binding [1] | binding [2] | binding [3] |
| --- | --- | --- | --- |
| endogenous ARHGAP10 protein (osteoclasts) (protein, UniProt Q6Y5D8 1-786) MGLQPLEFSDCYLDSPWFRERIRAHEAELERTNKFIKELIKDGKNLISATKSLSAAQRKFAHSLRDFKFEFIGDAETDDERCIDASLREFSNFLKNLEEQREIMALSVTETLIKPLEKFRKEQLGAVKEEKKKFDKETEKNYSLIDKHLTLSARKKDSHLQEADLQVEQNRQHFYELSLEYVCKLQEIQERKKFEFVEPMLSFFQGMFTFYHQGHELSKDFNHYKMELQINIQNTRNRFEGTRSEVEELMNKIRQNPKDQKRASQFTAEGYLYVQEKRPAPFGSSWVKHYCMYRKTAKKFNMIPFEHRSGGKLGDGEAFFLKECTKRHMDSTDRRFCFDIEAADRPGVPLTVQAFSEEERKQWLEALGGKEALFHTFNRAIVPRPEGGAQLDKMGFTILRKCISAVETRGINDQGLYRVVGVSSKVQRLLSMLMDVKMCNELDLENSADWEVKTVTSALKQYLRSLPEPLMTYELHRDFIVPAKSGSPESRVNAIHFLVHKLPEKNKEMLDILVKHLTNVSSHSKQNLMTVANLGVVFGPTLMRPQEETVAAIMDLKFQNIVVEILIENHEKIFRTSPDTTFAEPTCLSASPPNAPPRQSKRQGQRTKRPVAVYNLCLELEEGDSPSPLKEDPPSSSQDSLSTPSPTTSAAHGPPGLDGNHLAADGGSCGDATATTPSQTRPSMVQWLNMQSPTTPSSNPAGTPPSPRMSPFPLSPAASIVDKLPECVINRKARAVYPCEAEHSSELSFEIGAIFEDVQTSREPGWLEGTLNGKRGLIPQNYVKLL | binds | – | – |
| myc-tagged full-length ARHGAP10, K37,41,44E, re-expressed in Arhgap10 KO osteoclasts (protein, UniProt A1A4S6 1-786) MGLQPLEFSDCYLDSPWFRERIRAHEAELERTNKFIEELIEDGENLIAATKSLSVAQRKFAHSLRDFKFEFIGDAVTDDERCIDASLREFSNFLKNLEEQREIMALSVTETLIKPLEKFRKEQLGAVKEEKKKFDKETEKNYSLIDKHLNLSAKKKDSHLQEADIQVEQNRQHFYELSLEYVCKLQEIQERKKFEFVEPMLSFFQGMFTFYHQGHELAKDFNHYKMELQINIQNTRNRFEGTRSEVEELMNKIRQNPKDHKRASQFTAEGYLYVQEKRPAPFGSSWVKHYCMYRKAAKKFNMIPFEHRSGGKLGDGEVFFLKECTKRHTDSIDRRFCFDIEAADRPGVSLTMQAFSEEERKQWLEALGGKEALSHSFNTAIIPRPEGNAQLDKMGFTIIRKCISAVETRGINDQGLYRVVGVSSKVQRLLSMLMDVKTCNEVDLENSADWEVKTITSALKQYLRSLPEPLMTYELHGDFIVPAKSGSPESRVNAIHFLVHKLPEKNKEMLDILVKHLTNVSNHSKQNLMTVANLGVVFGPTLMRPQEETVAALMDLKFQNIVVEILIENHEKIFRTPPDTTFPEPTCLSASPPNAPPRQSKRQGQRTKRPVAVYNLCLELEDGDNPYPSKEDTPTSSLDSLSSPSPVTTAVPGPPGPDKNHLLADGGSFGDWASTIPGQTRSSMVQWLNPQSPTTTSSNSAVTPLSPGSSPFPFSPPATVADKPPESIRSRKARAVYPCEAEHSSELSFEIGAIFEDVQTSREPGWLEGTLNGKRGLIPQNYVKLL | – | binds weakly | – |
| myc-tagged ARHGAP10 R418A (GAP-dead mutant), re-expressed in Arhgap10 KO osteoclasts (protein, UniProt A1A4S6 1-786) MGLQPLEFSDCYLDSPWFRERIRAHEAELERTNKFIKELIKDGKNLIAATKSLSVAQRKFAHSLRDFKFEFIGDAVTDDERCIDASLREFSNFLKNLEEQREIMALSVTETLIKPLEKFRKEQLGAVKEEKKKFDKETEKNYSLIDKHLNLSAKKKDSHLQEADIQVEQNRQHFYELSLEYVCKLQEIQERKKFEFVEPMLSFFQGMFTFYHQGHELAKDFNHYKMELQINIQNTRNRFEGTRSEVEELMNKIRQNPKDHKRASQFTAEGYLYVQEKRPAPFGSSWVKHYCMYRKAAKKFNMIPFEHRSGGKLGDGEVFFLKECTKRHTDSIDRRFCFDIEAADRPGVSLTMQAFSEEERKQWLEALGGKEALSHSFNTAIIPRPEGNAQLDKMGFTIIRKCISAVETRGINDQGLYAVVGVSSKVQRLLSMLMDVKTCNEVDLENSADWEVKTITSALKQYLRSLPEPLMTYELHGDFIVPAKSGSPESRVNAIHFLVHKLPEKNKEMLDILVKHLTNVSNHSKQNLMTVANLGVVFGPTLMRPQEETVAALMDLKFQNIVVEILIENHEKIFRTPPDTTFPEPTCLSASPPNAPPRQSKRQGQRTKRPVAVYNLCLELEDGDNPYPSKEDTPTSSLDSLSSPSPVTTAVPGPPGPDKNHLLADGGSFGDWASTIPGQTRSSMVQWLNPQSPTTTSSNSAVTPLSPGSSPFPFSPPATVADKPPESIRSRKARAVYPCEAEHSSELSFEIGAIFEDVQTSREPGWLEGTLNGKRGLIPQNYVKLL | – | binds | – |
| GEFH1 (protein, UniProt Q60875 1-985) MSRIESLTRARIDRSKEQATKTREKEKMKEAKDARYTNGHLFTTISVSGMTMCYACNKSITAKEALICPTCNVTIHNRCKDTLANCTKVKQKQQKAALLRNNTALQSVSLRSKTTTRERPTSAIYPSDSFRQSLLGSRRGLSSLSLAKSVSTTNIAGHFNDESPLGLRQILSQSTDSLNMRNRTLSVESLIDEGVEVFYNELMSDFEMDEKDFEADSWSLAVDSSFLQQHKKEVMKKQDVIYELIQTELHHVRTLKIMTRLFRTGMLEELQMEPEVVQGLFPCVDELSDIHTRFLNQLLERRRQALCPGSTRNFVIHRLGDLLISQFSGSNAEQMRKTYSEFCSRHTKALKLYKELYARDKRFQQFIRKMTRSAVLKRHGVQECILLVTQRITKYPVLINRILQNSHGVEEEYQDLASALGLVKELLSNVDQDVHELEKEARLQEIYNRMDPRAQTPVPGKGPFGRDELLRRKLIHEGCLLWKTATGRFKDVLLLLMTDVLVFLQEKDQKYIFTSLDKPSVVSLQNLIVRDIANQAKGMFLISSGPPEMYEVHAASRDDRTTWIRVIQQSVRLCPSREDFPLIETEDKAYLRRIKTKLQQKNQALVELLQKNVELFAEMVHFQALKAGFVGMPPPALPRGLFRLESFESLRGERLLKDALREVEGLKDLLLGPCVDLPMTSREPALPLDSDSGSCPGVTANGEARTFNGSIELCRADSDSSQKDRNGNQLRSPQEEVLQPLINLYGLLHGLQAVVVQQERLMEALFPEGPERWEKLSRANSRDGEAGRAAVASVTPEKQATELALLQRQHTLLQEELRRCQRLGEERATEAGSLEARLRESEQARALLEREAEEIRRQLAALGQNEPLPAEAPWARRPLDPRRRSLPAGDALYLSFNPPQPSRGHDRLDLPVTVRSLHRPFDDREAQELGSPEDRLQDSSDPDTGSEEEVSSRLSPPHSPRDFTRMQDIPEETESRDGEPTASES | binds | – | – |
| myc-tagged BAR-PH (aa 1-388) of ARHGAP10, WT (domain or fragment, UniProt A1A4S6 1-388) MGLQPLEFSDCYLDSPWFRERIRAHEAELERTNKFIKELIKDGKNLIAATKSLSVAQRKFAHSLRDFKFEFIGDAVTDDERCIDASLREFSNFLKNLEEQREIMALSVTETLIKPLEKFRKEQLGAVKEEKKKFDKETEKNYSLIDKHLNLSAKKKDSHLQEADIQVEQNRQHFYELSLEYVCKLQEIQERKKFEFVEPMLSFFQGMFTFYHQGHELAKDFNHYKMELQINIQNTRNRFEGTRSEVEELMNKIRQNPKDHKRASQFTAEGYLYVQEKRPAPFGSSWVKHYCMYRKAAKKFNMIPFEHRSGGKLGDGEVFFLKECTKRHTDSIDRRFCFDIEAADRPGVSLTMQAFSEEERKQWLEALGGKEALSHSFNTAIIPRPEGN | – | – | binds |
| myc-tagged full-length human ARHGAP10, WT (HEK293T) (protein, UniProt A1A4S6 1-786) MGLQPLEFSDCYLDSPWFRERIRAHEAELERTNKFIKELIKDGKNLIAATKSLSVAQRKFAHSLRDFKFEFIGDAVTDDERCIDASLREFSNFLKNLEEQREIMALSVTETLIKPLEKFRKEQLGAVKEEKKKFDKETEKNYSLIDKHLNLSAKKKDSHLQEADIQVEQNRQHFYELSLEYVCKLQEIQERKKFEFVEPMLSFFQGMFTFYHQGHELAKDFNHYKMELQINIQNTRNRFEGTRSEVEELMNKIRQNPKDHKRASQFTAEGYLYVQEKRPAPFGSSWVKHYCMYRKAAKKFNMIPFEHRSGGKLGDGEVFFLKECTKRHTDSIDRRFCFDIEAADRPGVSLTMQAFSEEERKQWLEALGGKEALSHSFNTAIIPRPEGNAQLDKMGFTIIRKCISAVETRGINDQGLYRVVGVSSKVQRLLSMLMDVKTCNEVDLENSADWEVKTITSALKQYLRSLPEPLMTYELHGDFIVPAKSGSPESRVNAIHFLVHKLPEKNKEMLDILVKHLTNVSNHSKQNLMTVANLGVVFGPTLMRPQEETVAALMDLKFQNIVVEILIENHEKIFRTPPDTTFPEPTCLSASPPNAPPRQSKRQGQRTKRPVAVYNLCLELEDGDNPYPSKEDTPTSSLDSLSSPSPVTTAVPGPPGPDKNHLLADGGSFGDWASTIPGQTRSSMVQWLNPQSPTTTSSNSAVTPLSPGSSPFPFSPPATVADKPPESIRSRKARAVYPCEAEHSSELSFEIGAIFEDVQTSREPGWLEGTLNGKRGLIPQNYVKLL | – | – | binds |
